From article PMC10013470
Results are given in words; binding and its absence hold for the method and conditions named. In cells and extracts the contact can be indirect. Some results given as binding are weak or reduced against the parent protein; the word gives no strength.

Columns and labels:
[1] = biological target: T1, Gasdermin D (GSDMD) (human (endogenous in BXPC-3 and Patu-8988t)) (UniProt P57764); assay: co-IP; endogenous proteins in RIPA lysates of BXPC-3 and Patu-8988t cells; primary antibody at 4°C overnight, Protein A+G agarose beads, rabbit or mouse IgG as negative control; western blot
T1 sequence: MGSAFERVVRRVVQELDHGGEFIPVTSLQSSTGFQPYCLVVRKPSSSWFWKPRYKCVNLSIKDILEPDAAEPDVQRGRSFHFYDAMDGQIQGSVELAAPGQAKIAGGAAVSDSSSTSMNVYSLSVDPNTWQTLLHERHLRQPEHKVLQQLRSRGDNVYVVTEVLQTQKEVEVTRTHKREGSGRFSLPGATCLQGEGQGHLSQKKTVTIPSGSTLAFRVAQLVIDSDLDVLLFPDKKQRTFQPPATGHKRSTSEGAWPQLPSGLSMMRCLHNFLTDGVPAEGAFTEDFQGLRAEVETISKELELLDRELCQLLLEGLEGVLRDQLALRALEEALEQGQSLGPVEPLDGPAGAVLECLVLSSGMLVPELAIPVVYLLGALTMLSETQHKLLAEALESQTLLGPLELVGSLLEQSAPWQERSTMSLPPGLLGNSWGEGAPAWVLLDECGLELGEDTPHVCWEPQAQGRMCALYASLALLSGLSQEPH

[2] = biological target: T2, Gasdermin E (GSDME) (human (endogenous in BXPC-3 and Patu-8988t)) (UniProt O60443); assay: as above
T2 sequence: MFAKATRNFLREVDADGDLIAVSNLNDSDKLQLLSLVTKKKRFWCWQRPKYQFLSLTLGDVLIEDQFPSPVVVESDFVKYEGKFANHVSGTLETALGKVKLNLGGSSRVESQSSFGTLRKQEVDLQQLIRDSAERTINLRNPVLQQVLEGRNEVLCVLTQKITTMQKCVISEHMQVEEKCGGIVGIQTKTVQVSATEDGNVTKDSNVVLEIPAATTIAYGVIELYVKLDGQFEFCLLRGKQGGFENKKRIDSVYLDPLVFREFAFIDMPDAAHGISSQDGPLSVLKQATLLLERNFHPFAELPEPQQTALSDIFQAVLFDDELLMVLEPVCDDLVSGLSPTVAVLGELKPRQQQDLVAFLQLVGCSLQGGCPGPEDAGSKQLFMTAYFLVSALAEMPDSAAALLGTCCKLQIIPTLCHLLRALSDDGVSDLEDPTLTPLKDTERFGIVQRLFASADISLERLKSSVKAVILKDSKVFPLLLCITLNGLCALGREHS

binding [1]: no binding
binding [2]: binds
B1: Polypeptide N-acetylgalactosaminyltransferase-6 (GALNT6) (enzyme, UniProt Q8NCL4 1-622)
chain: MRLLRRRHMPLRLAMVGCAFVLFLFLLHRDVSSREEATEKPWLKSLVSRKDHVLDLMLEAMNNLRDSMPKLQIRAPEAQQTLFSINQSCLPGFYTPAELKPFWERPPQDPNAPGADGKAFQKSKWTPLETQEKEEGYKKHCFNAFASDRISLQRSLGPDTRPPECVDQKFRRCPPLATTSVIIVFHNEAWSTLLRTVYSVLHTTPAILLKEIILVDDASTEEHLKEKLEQYVKQLQVVRVVRQEERKGLITARLLGASVAQAEVLTFLDAHCECFHGWLEPLLARIAEDKTVVVSPDIVTIDLNTFEFAKPVQRGRVHSRGNFDWSLTFGWETLPPHEKQRRKDETYPIKSPTFAGGLFSISKSYFEHIGTYDNQMEIWGGENVEMSFRVWQCGGQLEIIPCSVVGHVFRTKSPHTFPKGTSVIARNQVRLAEVWMDSYKKIFYRRNLQAAKMAQEKSFGDISERLQLREQLHCHNFSWYLHNVYPEMFVPDLTPTFYGAIKNLGTNQCLDVGENNRGGKPLIMYSCHGLGGNQYFEYTTQRDLRHNIAKQLCLHVSKGALGLGSCHFTGKNSQVPKDEEWELAQDQLIRNSGSGTCLTSQDKKPAMAPCNPSDPHQLWLFV
